# Measured values published in PubChem BioAssay AID493014 (National Center for Advancing Translational Sciences (NCATS), 2011).
# Screen size: about 340,000 compounds; about 170 (0.05%) were called active. Inconclusive results, whose numbers are uncertain, are shown with a selection of clear calls. The call rests on the fitted dose curve; in most records, active means well fitted inhibition curve with a large enough effect in the signal ratio, with a control signal flat (not every such curve was filed as active); inconclusive means small, poorly fitted or top-dose-only effect, or effect the other way, or a change in a side signal; inactive means flat fitted curve, though single readings scatter; the % refers to the signal ratio. Potencies of inconclusive entries are doubtful fits and often do not repeat.
# Test: qHTS Assay to Find Inhibitors of Chronic Active B-Cell Receptor Signaling;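 on activity change, negative = inhibition: plate controls were basal doxycycline-induced cells for no effect and cells given 10 µM MG132 for full effect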
# Details: ABC-DLBCL IkBa-CBG/CBR reporter, luminescence ratio (green luciferase fused to IkBa over red control in TMD8 lymphoma cells), 4 h; activity change, negative = inhibition: at 46.1 µM (top of the series)
# Procedure, shortened: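 Cell line TMD8 (human ABC DLBCL), stably expressing tet-inducible CBG68-IkBa fusion and CBR; IMDM/0.5% FBS; cpd up to 46 uM; dox induction, 4 h, 37C/5% CO2; dual luminescence; green/red ratio; MG132 control.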
# Potency means the concentration at half of the fitted maximal effect.
Structure (SMILES),"activity change, negative = inhibition",Potency
Cc1nnc(NC(=O)c2cc(-c3ccncc3)nc3c(C)cccc23)s1,inconclusive: 8.6%,
CCc1cc2c(=O)c(-c3cnn(-c4ccccc4)c3)c(C(F)(F)F)oc2c(CN(C)C)c1O,inconclusive: 14.6%,
O=C(O)c1ccc(CSc2nnc(-c3ccccc3)n2-c2ccccc2)cc1,inactive: 8.39%,
Cc1cc(/C=C2\SC(=S)NC2=O)c(C)n1-c1ccc(O)cc1,inconclusive: -6.9%,
Cc1ccc2nc(NC(=O)c3ccc4ncsc4c3)sc2c1,,"inconclusive: 29.1 µM [falling, single point]"
O=C(N/N=C/c1ccc2cccc(OCc3ccccc3)c2n1)c1ccc(Cl)cc1,,"inconclusive: 2.51 µM [falling, full curve, poor fit]"
COc1ccc(CCNC(=O)c2cccc(S(=O)(=O)N3CCCCC3)c2)cc1,,"inconclusive: 35.5 µM [falling, partial curve, poor fit]"
Cc1ccc(C)c(OCCCC(=O)Nc2ccc(N3CCOCC3)cc2)c1,inconclusive: -2.99%,
Cc1nc(N)sc1C(=O)N/N=C/c1ccc([N+](=O)[O-])cc1,,"inconclusive: 0.708 µM [falling, full curve, poor fit]"
COc1ccccc1OCC(O)Cn1c(=N)n(Cc2ccccc2)c2ccccc21 (stereo not drawn),inconclusive: 9.49%,
CC(C)(C)OC(=O)N1CCC(CC2CC(c3ccc(Cl)cc3)=NO2)(C(=O)NCC2CCCCC2)CC1 (stereo not drawn),inconclusive: 10.2%,
N#CCC(=O)Nc1ccc(C(=O)Nc2cccc(S(N)(=O)=O)c2)cc1,,"inconclusive: 22.4 µM [falling, single point]"
O=C1NC(=S)N/C1=C\c1ccc(N2CCOCC2)cc1,inconclusive: 1.73%,
Cc1ccc2nc(C3CCCN(C(=S)Nc4ccccc4C)C3)[nH]c2c1 (stereo not drawn),,"inconclusive: 12.6 µM [falling, partial curve, poor fit]"
COc1ccc(C(=O)COC(=O)C(O)c2ccccc2)c(OC)c1 (stereo not drawn),inconclusive: -0.0804%,
COc1ccc(-n2nnc3c(=O)n(CC(=O)N4CCC(C)CC4)cnc32)cc1,inconclusive: 9.21%,
COc1ccc(-c2cc(C(=O)N3CC4(C)CC3CC(C)(C)C4)no2)cc1 (stereo not drawn),,"inconclusive: 1.84 µM [rising, partial curve, poor fit]"
CCOC(=O)c1ccc(-n2c(-c3ccco3)nc3ccccc3c2=O)cc1,inconclusive: 2.13%,
C=CCC1(N(C(C)=O)c2ccccc2C)CCCCC1,inconclusive: 8.27%,
O=Nc1c2cc(-c3ccccc3)[nH]nc-2c2ccccc12,inconclusive: 2.39%,
CCN(CC(N)=O)S(=O)(=O)c1ccc(Br)cc1,inconclusive: 2.93%,
COc1ccc2c(c1)C1=C(CC2)C(c2ccc(C)cc2)NC(=S)N1 (stereo not drawn),inactive: 5.27%,
CC(=O)N1CCCc2ccc(NS(=O)(=O)c3ccc(C)cc3)cc21,,"inconclusive: 2.31 µM [falling, partial curve, poor fit]"
Cc1ccccc1CN1C(=O)c2ccccc2Sc2ccc(C(=O)N3CCOCC3)cc21,inactive: 2.41%,

# An excerpt of these results, as tab-separated lines.
Structure (SMILES)	activity change, negative = inhibition	Potency
Cc1ccc(C)c(OCCCC(=O)Nc2ccc(N3CCOCC3)cc2)c1	inconclusive: -2.99%	
Cc1nc(N)sc1C(=O)N/N=C/c1ccc([N+](=O)[O-])cc1		inconclusive: 0.708 µM [falling, full curve, poor fit]
COc1ccccc1OCC(O)Cn1c(=N)n(Cc2ccccc2)c2ccccc21 (stereo not drawn)	inconclusive: 9.49%	

# Next records follow:

Structure (SMILES),"activity change, negative = inhibition",Potency
COC(=O)c1ccc(C(=O)OC)c(-n2c(=O)c3ccccc3c3ccccc3c2=O)c1,inconclusive: -2.51%,
O=c1oc2ccccc2c(Nc2cccc(O)c2)c1[N+](=O)[O-],,"inconclusive: 23.1 µM [falling, single point]"
Cc1ccc(N2C(=O)SC(N(CC(=O)O)c3cccc(C)c3)C2=O)cc1 (stereo not drawn),inconclusive: -19%,
S=C(Nc1ccc(Cl)cc1)NC1CCN(Cc2ccccc2)CC1,inactive: 1.97%,
O=c1cc(O)n(-c2ccc(F)cc2)c(=S)[nH]1,,"inconclusive: 29.1 µM [falling, single point]"
C/C(=N\NC(=O)c1ccc(O)cc1)c1ccc2c(c1)OCCO2,,"inconclusive: 4.61 µM [falling, partial curve]"
COc1ccc(CCNC(=O)c2noc(C(C)C)c2[N+](=O)[O-])cc1OC,inconclusive: 2.09%,
CCn1cc2nc(SCC(=O)Nc3ccc(OC)cc3OC)n(Cc3ccc(OC)cc3)c(=O)c2n1,inactive: -25%,
CC(=O)Oc1ccc2c(=O)c(-c3ccccc3)coc2c1,,"inconclusive: 3.16 µM [activator, partial curve, poor fit]"
COc1ccc(-c2cc3ccc(OCC(=O)NCC4CCC(C(=O)O)CC4)cc3oc2=O)cc1 (stereo not drawn),inconclusive: 17.1%,
Cc1cnc(NC(=O)c2cccc(S(=O)(=O)N3CCOCC3)c2)s1,inconclusive: 5.51%,
CCOC(=O)c1c(C)[nH]c(C(=O)OCC(=O)NCc2ccc(F)cc2)c1C,inconclusive: 4.73%,
CN(C(=O)c1cccc(NC(=O)c2cccs2)c1)c1ccccc1,inconclusive: 0.914%,
COc1ccc(-c2noc(-c3ccccc3Cl)n2)cc1OC,inconclusive: -12.5%,
c1csc(-c2nc(-c3ccc(-c4ccon4)s3)no2)c1,,"inconclusive: 20 µM [falling, single point]"
COc1ccc(-c2csc(NC(=O)c3cccs3)c2C(=O)O)cc1OC,,"inconclusive: 15.8 µM [falling, partial curve]"
Cc1ccc(C(=O)Nc2ccc(C)c(S(=O)(=O)Nc3ccccc3Cl)c2)s1,inconclusive: -0.104%,
c1cncc(CSc2nnc3ccc(-c4cccs4)nn23)c1,inconclusive: 0.821%,
NS(=O)(=O)c1cc(C(=O)N=Nc2c(O)[nH]c3ccccc23)ccc1Cl,,"inconclusive: 0.631 µM [rising, partial curve, poor fit]"
Cc1ccccc1NC(=S)NC(=O)Cc1ccc(Cl)cc1,,"inconclusive: 25.1 µM [falling, partial curve, poor fit]"
O=C(Nc1nc2ccccc2s1)c1cc2c(s1)-c1ccccc1OC2,,"inconclusive: 2.91 µM [rising, partial curve, poor fit]"
CC(C)CC(=O)NC(=S)Nc1ccc(N2CCCC2)c(Cl)c1,inconclusive: 3.48%,
CCN(C(=S)NC(=O)c1ccccc1Br)C1CCCCC1,inactive: 0.789%,
Cc1cc(=O)oc(C)c1C(=O)Nc1cccnc1Cl,inactive: -7.53%,
